B1: RBM22 (protein, UniProt Q9NW64 2-420, looked up)
Pre-mRNA-splicing factor RBM22: ATSLGSNTYNRQNWEDADFPILCQTCLGENPYIRMTKEKYGKECKICARPFTVFRWCPGVRMRFKKTEVCQTCSKLKNVCQTCLLDLEYGLPIQVRDAGLSFKDDMPKSDVNKEYYTQNMEREISNSDGTRPVGMLGKATSTSDMLLKLARTTPYYKRNRPHICSFWVKGECKRGEECPYRHEKPTDPDDPLADQNIKDRYYGINDPVADKLLKRASTMPRLDPPEDKTITTLYVGGLGDTITETDLRNHFYQFGEIRTITVVQRQQCAFIQFATRQAAEVAAEKSFNKLIVNGRRLNVKWGRSQAARGKEKEKDGTTDSGIKLEPVPGLPGALPPPPAAEEEASANYFNLPPSGPPAVVNIALPPPPGIAPPPPPGFGPHMFHPMGPPPPFMRAPGPIHYPSQDPQRMGAHAGKHSSP
B2: ZSCAN25 (protein, UniProt Q6NSZ9 1-544, looked up)
Zinc finger and SCAN …: MLKEHPEMAEAPQQQLGIPVVKLEKELPWGRGREDPSPETFRLRFRQFRYQEAAGPQEALRELQELCRRWLRPELHTKEQILELLVLEQFLTILPREFYAWIREHGPESGKALAAMVEDLTERALEAKAVPCHRQGEQEETALCRGAWEPGIQLGPVEVKPEWGMPPGEGVQGPDPGTEEQLSQDPGDETRAFQEQALPVLQAGPGLPAVNPRDQEMAAGFFTAGSQGLGPFKDMALAFPEEEWRHVTPAQIDCFGEYVEPQDCRVSPGGGSKEKEAKPPQEDLKGALVALTSERFGEASLQGPGLGRVCEQEPGGPAGSAPGLPPPQHGAIPLPDEVKTHSSFWKPFQCPECGKGFSRSSNLVRHQRTHEEKSYGCVECGKGFTLREYLMKHQRTHLGKRPYVCSECWKTFSQRHHLEVHQRSHTGEKPYKCGDCWKSFSRRQHLQVHRRTHTGEKPYTCECGKSFSRNANLAVHRRAHTGEKPYGCQVCGKRFSKGERLVRHQRIHTGEKPYHCPACGRSFNQRSILNRHQKTQHRQEPLVQ
B3: UBTF (protein, UniProt P17480 1-764, looked up)
Nucleolar transcription …: MNGEADCPTDLEMAAPKGQDRWSQEDMLTLLECMKNNLPSNDSSKFKTTESHMDWEKVAFKDFSGDMCKLKWVEISNEVRKFRTLTELILDAQEHVKNPYKGKKLKKHPDFPKKPLTPYFRFFMEKRAKYAKLHPEMSNLDLTKILSKKYKELPEKKKMKYIQDFQREKQEFERNLARFREDHPDLIQNAKKSDIPEKPKTPQQLWYTHEKKVYLKVRPDATTKEVKDSLGKQWSQLSDKKRLKWIHKALEQRKEYEEIMRDYIQKHPELNISEEGITKSTLTKAERQLKDKFDGRPTKPPPNSYSLYCAELMANMKDVPSTERMVLCSQQWKLLSQKEKDAYHKKCDQKKKDYEVELLRFLESLPEEEQQRVLGEEKMLNINKKQATSPASKKPAQEGGKGGSEKPKRPVSAMFIFSEEKRRQLQEERPELSESELTRLLARMWNDLSEKKKAKYKAREAALKAQSERKPGGEREERGKLPESPKRAEEIWQQSVIGDYLARFKNDRVKALKAMEMTWNNMEKKEKLMWIKKAAEDQKRYERELSEMRAPPAATNSSKKMKFQGEPKKPPMNGYQKFSQELLSNGELNHLPLKERMVEIGSRWQRISQSQKEHYKKLAEEQQKQYKVHLDLWVKSLSPQDRAAYKEYISNKRKSMTKLRGPNPKSSRTTLQSKSESEEDDEEDEDDEDEDEEEEDDENGDSSEDGGDSSESSSEDESEDGDENEEDDEDEDDDEDDDEDEDNESEGSSSSSSSSGDSSDSDSN
B4: RBM4B (protein, UniProt Q9BQ04 1-359, looked up)
RNA-binding protein 4B: MVKLFIGNLPREATEQEIRSLFEQYGKVLECDIIKNYGFVHIEDKTAAEDAIRNLHHYKLHGVNINVEASKNKSKASTKLHVGNISPTCTNQELRAKFEEYGPVIECDIVKDYAFVHMERAEDAVEAIRGLDNTEFQGKRMHVQLSTSRLRTAPGMGDQSGCYRCGKEGHWSKECPVDRTGRVADFTEQYNEQYGAVRTPYTMGYGESMYYNDAYGALDYYKRYRVRSYEAVAAAAAASAYNYAEQTMSHLPQVQSTTVTSHLNSTSVDPYDRHLLPNSGAAATSAAMAAAAATTSSYYGRDRSPLRRAAAMLPTVGEGYGYGPESELSQASAATRNSLYDMARYEREQYVDRARYSAF
B5: DPF1 (protein, UniProt Q92782 1-387, looked up)
Zinc finger protein neuro-d4: MATVIPGPLSLGEDFYREAIEHCRSYNARLCAERSLRLPFLDSQTGVAQNNCYIWMEKTHRGPGLAPGQIYTYPARCWRKKRRLNILEDPRLRPCEYKIDCEAPLKKEGGLPEGPVLEALLCAETGEKKIELKEEETIMDCQKQQLLEFPHDLEVEDLEDDIPRRKNRAKGKAYGIGGLRKRQDTASLEDRDKPYVCDICGKRYKNRPGLSYHYTHTHLAEEEGEENAERHALPFHRKNNHKQFYKELAWVPEAQRKHTAKKAPDGTVIPNGYCDFCLGGSKKTGCPEDLISCADCGRSGHPSCLQFTVNMTAAVRTYRWQCIECKSCSLCGTSENDDQLLFCDDCDRGYHMYCLSPPMAEPPEGSWSCHLCLRHLKEKASAYITLT
B6: HNRNPA0 (protein, UniProt Q13151 1-305, looked up)
Heterogeneous nuclear …: MENSQLCKLFIGGLNVQTSESGLRGHFEAFGTLTDCVVVVNPQTKRSRCFGFVTYSNVEEADAAMAASPHAVDGNTVELKRAVSREDSARPGAHAKVKKLFVGGLKGDVAEGDLIEHFSQFGTVEKAEIIADKQSGKKRGFGFVYFQNHDAADKAAVVKFHPIQGHRVEVKKAVPKEDIYSGGGGGGSRSSRGGRGGRGRGGGRDQNGLSKGGGGGYNSYGGYGGGGGGGYNAYGGGGGGSSYGGSDYGNGFGGFGSYSQHQSSYGPMKSGGGGGGGGSSWGGRSNSGPYRGGYGGGGGYGGSSF
B7: PHB (protein, UniProt P35232 2-272, looked up)
Prohibitin 1: AAKVFESIGKFGLALAVAGGVVNSALYNVDAGHRAVIFDRFRGVQDIVVGEGTHFLIPWVQKPIIFDCRSRPRNVPVITGSKDLQNVNITLRILFRPVASQLPRIFTSIGEDYDERVLPSITTEILKSVVARFDAGELITQRELVSRQVSDDLTERAATFGLILDDVSLTHLTFGKEFTEAVEAKQVAQQEAERARFVVEKAEQQKKAAIISAEGDSKAAELIANSLATAGDGLIELRKLEAAEDIAYQLSRSRNITYLPAGQSVLLQLPQ
B8: NUP88 (protein, UniProt Q99567 2-741, looked up)
Nuclear pore complex protein …: AAAEGPVGDGELWQTWLPNHVVFLRLREGLKNQSPTEAEKPASSSLPSSPPPQLLTRNVVFGLGGELFLWDGEDSSFLVVRLRGPSGGGEEPALSQYQRLLCINPPLFEIYQVLLSPTQHHVALIGIKGLMVLELPKRWGKNSEFEGGKSTVNCSTTPVAERFFTSSTSLTLKHAAWYPSEILDPHVVLLTSDNVIRIYSLREPQTPTNVIILSEAEEESLVLNKGRAYTASLGETAVAFDFGPLAAVPKTLFGQNGKDEVVAYPLYILYENGETFLTYISLLHSPGNIGKLLGPLPMHPAAEDNYGYDACAVLCLPCVPNILVIATESGMLYHCVVLEGEEEDDHTSEKSWDSRIDLIPSLYVFECVELELALKLASGEDDPFDSDFSCPVKLHRDPKCPSRYHCTHEAGVHSVGLTWIHKLHKFLGSDEEDKDSLQELSTEQKCFVEHILCTKPLPCRQPAPIRGFWIVPDILGPTMICITSTYECLIWPLLSTVHPASPPLLCTREDVEVAESPLRVLAETPDSFEKHIRSILQRSVANPAFLKASEKDIAPPPEECLQLLSRATQVFREQYILKQDLAKEEIQRRVKLLCDQKKKQLEDLSYCREERKSLREMAERLADKYEEAKEKQEDIMNRMKKLLHSFHSELPVLSDSERDMKKELQLIPDQLRHLGNAIKQVTMKKDYQQQKMEKVLSLPKPTIILSAYQRKCIQSILKEEGEHIREMVKQINDIRNHVNF
B9: PHC3 (protein, UniProt Q8NDX5 1-983, looked up)
Polyhomeotic-like protein 3: MDTEPNPGTSSVSTTTSSTTTTTITTSSSRMQQPQISVYSGSDRHAVQVIQQALHRPPSSAAQYLQQMYAAQQQHLMLHTAALQQQHLSSSQLQSLAAVQASLSSGRPSTSPTGSVTQQSSMSQTSINLSTSPTPAQLISRSQASSSTSGSITQQTMLLGSTSPTLTASQAQMYLRAQMLIFTPATTVAAVQSDIPVVSSSSSSSCQSAATQVQNLTLRSQKLGVLSSSQNGPPKSTSQTQSLTICHNKTTVTSSKISQRDPSPESNKKGESPSLESRSTAVTRTSSIHQLIAPASYSPIQPHSLIKHQQIPLHSPPSKVSHHQLILQQQQQQIQPITLQNSTQDPPPSQHCIPLQNHGLPPAPSNAQSQHCSPIQSHPSPLTVSPNQSQSAQQSVVVSPPPPHSPSQSPTIIIHPQALIQPHPLVSSALQPGPNLQQSTANQVQATAQLNLPSHLPLPASPVVHIGPVQQSALVSPGQQIVSPSHQQYSSLQSSPIPIASPPQMSTSPPAQIPPLPLQSMQSLQVQPEILSQGQVLVQNALVSEEELPAAEALVQLPFQTLPPPQTVAVNLQVQPPAPVDPPVVYQVEDVCEEEMPEESDECVRMDRTPPPPTLSPAAITVGRGEDLTSEHPLLEQVELPAVASVSASVIKSPSDPSHVSVPPPPLLLPAATTRSNSTSMHSSIPSIENKPPQAIVKPQILTHVIEGFVIQEGLEPFPVSRSSLLIEQPVKKRPLLDNQVINSVCVQPELQNNTKHADNSSDTEMEDMIAEETLEEMDSELLKCEFCGKMGYANEFLRSKRFCTMSCAKRYNVSCSKKFALSRWNRKPDNQSLGHRGRRPSGPDGAAREHILRQLPITYPSAEEDLASHEDSVPSAMTTRLRRQSERERERELRDVRIRKMPENSDLLPVAQTEPSIWTVDDVWAFIHSLPGCQDIADEFRAQEIDGQALLLLKEDHLMSAMNIKLGPALKICARINSLKES

Tested on: BAF complex subunits and histone proteins
Test: Mass spectrometry proteomics of purified HA-SS18 WT and HA-SS18-SSX1 complexes (Tables 5A-5E)
Parameters: species or system human
Conditions: for Total / Unique: HA-SS18SSX1_CHR_peptides; for Total: total peptides of the identified protein; for Unique: unique peptides of the identified protein
[1] = HA-SS18WT_CHR_peptides: protein identified in HA-SS18 WT BAF complex purification from nuclease-treated solubilized chromatin (CHR), HEK-293T
[2] = HA-SS18SSX1 purification, NE (soluble nuclear extract) fraction, HEK-293T, peptides per identified protein
[3] = HA-SS18WT_CHR_peptides: HA-SS18 WT purification from nuclease-treated solubilized chromatin (CHR), HEK-293T, label = protein identified
[4] = HA-SS18WT_NE_peptides: proteins co-purified with HA-SS18 WT from nuclear extract (NE), HEK-293T
[5] = HA-SS18SSX1_CHR_peptides: protein identified in the HA-SS18-SSX1 purification from solubilized chromatin (CHR), HEK-293T
[6] = HA-SS18SSX1_NE_peptides: protein co-purified with HA-SS18-SSX1 BAF complexes from soluble nuclear extract (NE), HEK-293T cells
[7] = HA-SS18WT_NE_peptides: HA-SS18 WT complexes purified from nuclear extract (NE), HEK-293T, label = protein identified (Gene Symbol)

Row | Molecule | Total | Unique | Total (peptides) [4] | Unique (peptides) [4] | Total (peptides) [6] | Unique (peptides) [6] | also measured
1 | B1 | 1 | 1 |  |  |  |  | Total (total peptides) [1]: 2; Unique (unique peptides) [1]: 2
2 | B2 | 1 | 1 | 1 | 1 |  |  | Total (total peptides) [2]: 3; Unique (unique peptides) [2]: 3; Total (peptides) [3]: 6; Unique (peptides) [3]: 5
3 | B3 |  |  |  |  | 2 | 2 | Total (total peptides) [5]: 27; Unique (unique peptides) [5]: 20; Total (peptides) [3]: 9; Unique (peptides) [3]: 9
4 | B4 | 1 | 1 |  |  |  |  | 
5 | B5 | 1 | 1 | 2 | 1 | 3 | 2 | Total (peptides) [7]: 4; Unique (peptides) [7]: 3
6 | B6 | 1 | 1 |  |  |  |  | Total (total peptides) [1]: 1; Unique (unique peptides) [1]: 1
7 | B7 | 1 | 1 | 1 | 1 | 1 | 1 | 
8 | B8 | 1 | 1 |  |  |  |  | 
9 | B9 | 1 | 1 |  |  |  |  | 

— US20250283871A1, “COMPOSITIONS AND METHODS FOR MODULATING THE INTERACTION BETWEEN SS18-SSX FUSION ONCOPROTEIN AND NUCLEOSOMES” (Dana-Farber Cancer Institute, Inc., priority 2020, published 2025)
